Values from PubChem BioAssay AID720505 (Drosophila RNAi Screening Center, 2013)
Aim: 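Genes needed for store-operated calcium entry in fly cells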 (primary screen). Cells: Drosophila S2R+ cells. Reagent: long dsRNA against Drosophila genes. Challenge: thapsigargin (2 µM) in calcium-free buffer to empty internal stores, then 2 mM calcium added back. Measurement: 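Fluo-4 signal in 384-well plates read on a FLIPR after thapsigargin (2 µM, calcium-free) store depletion and 2 mM calcium add-back; unnormalised mean endpoint per well; screen run twice, selected wells retested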. Direction: calcium signal: higher = more calcium entry after store depletion. Hit rule: 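Knock-downs counted as hits when calcium entry dropped relative to STIM1 positive and Rho1 negative controls present on each plate; roughly 1500 genes called, with reductions of differing size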. Calls: active = called as lowering calcium entry; inactive = not called.
The screen tested about 20,000 reagents; this is a random part of those with a known target gene and a result. In the full data, about 2,100 (10%) were called active. 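Raw plate signals without normalisation; calls rest on control-based scores that were not deposited; replicate 2 separates called from uncalled poorly.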 Reagents against one gene are numbered here. A plus sign joins genes that one reagent is predicted to hit. The record does not give: the amount of reagent, the time to read-out.

For Shmt, what does the deposit list?
calcium signal, replicate 1: 206; calcium signal, replicate 2: 135; outcome: inactive

Which result is listed for CG32633?
calcium signal, replicate 1: 92.5; calcium signal, replicate 2: 67.7; outcome: inactive

With Kdm3, what was measured?
calcium signal, replicate 1: 91.3; calcium signal, replicate 2: 84.3; outcome: inactive

How did the screen score bip1?
calcium signal, replicate 1: 100; calcium signal, replicate 2: 123; outcome: inactive

With cocoon, what was measured?
calcium signal, replicate 1: 63.8; calcium signal, replicate 2: 135; outcome: inactive

Which result is listed for dati #1?
calcium signal, replicate 1: 143; calcium signal, replicate 2: 98.7; outcome: inactive

Which result is listed for dati #2?
calcium signal, replicate 1: 78.7; calcium signal, replicate 2: 160; outcome: inactive

For dati #3, what does the deposit list?
calcium signal, replicate 1: 95.3; calcium signal, replicate 2: 122; outcome: inactive

How did the screen score Dlip2?
calcium signal, replicate 1: 128; calcium signal, replicate 2: 132; outcome: inactive

Which result is listed for Veneno?
calcium signal, replicate 1: 132; calcium signal, replicate 2: 147; outcome: inactive

What did the screen give for ATPsynCF6L?
calcium signal, replicate 1: 103; calcium signal, replicate 2: 91.3; outcome: inactive

2 successive records from above, for reference:
CG32633 → calcium signal, replicate 1 = 92.5; calcium signal, replicate 2 = 67.7; outcome = inactive
Kdm3 → calcium signal, replicate 1 = 91.3; calcium signal, replicate 2 = 84.3; outcome = inactive

The results go on:
Which result is listed for CtsL3?
calcium signal, replicate 1: 110; calcium signal, replicate 2: 115; outcome: inactive

What is on record for rno?
calcium signal, replicate 1: 95.3; calcium signal, replicate 2: 135; outcome: inactive

Which result is listed for CG32820 + CG17450 + CG32819 #1?
calcium signal, replicate 1: 58.8; calcium signal, replicate 2: 93.7; outcome: inactive

How did the screen score CG32820 + CG17450 + CG32819 #2?
calcium signal, replicate 1: 86.1; calcium signal, replicate 2: 78.6; outcome: inactive

For Trpm #1, how do the results read?
calcium signal, replicate 1: 107; calcium signal, replicate 2: 115; outcome: inactive

What is on record for Trpm #2?
calcium signal, replicate 1: 135; calcium signal, replicate 2: 69.9; outcome: inactive

For MICU1, what does the deposit list?
calcium signal, replicate 1: 80.9; calcium signal, replicate 2: 184; outcome: inactive

What is on record for Unc-76 #1?
calcium signal, replicate 1: 116; calcium signal, replicate 2: 132; outcome: inactive

For Unc-76 #2, what does the deposit list?
calcium signal, replicate 1: 108; calcium signal, replicate 2: 126; outcome: inactive
